Measured values reported in the supplement of paper PMC10338343.
± gives the standard deviation. Only a part is listed here, and it is no random draw. The uncertainty is large for many entries.

Test system: MIWI (PIWIL1) piRISC loaded with piRNA #2 (30 nt)
Test: pre-steady-state target cleavage rate (min^-1); MIWI and MILI are mouse PIWI proteins and EfPiwi is from a freshwater sponge; tags in brackets are library labels; higher = faster piRNA-guided slicing of the target
Settings: guide: piRNA #2 5'p-UUAGGUAACCCAGUAGAUCCAGAGGAAUUC; auxiliary factor: 500 nM mouse GTSF1
Description: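 Cleave-'n-Seq: a library of target RNAs (target site embedded in constant flanks, ACAGCATTCCGCGTTAGTGATATCCG... 5' flank; DNA-blocked outside the site) at 0.1 nM was incubated with 1 nM active mouse MILI or MIWI piRISC (synthetic 5'-monophosphorylated piRNA guide) with or without 500 nM mouse GTSF1 at 33 °C for 1 min to 16 h. Uncleaved targets were sequenced and normalised to non-target controls, and the pooled three trials were fitted to a burst-and-steady-state model to give the pre-steady-state cleavage rate (min^-1; k3 is constrained to at most 1e-4). Sequence is the target site only; target names encode pairing extent (gX:gY) and contiguous / 1-mismatch / 2-mismatch / bulge geometry. Fits with R² ≤ 0 are excluded.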

| Sequence | pre-steady-state target cleavage rate |
| --- | --- |
| CUUAAGGAGACCUAGAUCUGGGUUACCUGAA | 0.000513 ± 0.015 |
| CUUAAGGUCUGGAUCUACUCGCUUACCUAA | 0.000866 ± 0.02 |
| CAAUUCCUCUGGAUCUACUCCCUUACCUAA | 0.0015 ± 0.0077 |
| CUUAAGGAGACCAUCAACUGGGUUACCUAA | 0.00135 ± 0.0043 |
| CUUAAGGACUGGUACUACUGGGUUACCUAA | 0.00399 ± 0.015 |
| CUUAAGGAGACCUAGAAGUGGGUUACGUAA | 0.000324 ± 0.019 |
| CUUUUCCUCUGGAUCUACUCGGGUUACCUAA | 0.0024 ± 0.0059 |
| CUUUUCCUCUCGUUCUACUGGGUUACCUAA | 0.519 ± 0.041 |
| CUUAAGGAGAGGAUCUACUGGCUUUCCUAA | 0.000442 ± 0.016 |
| CUUAAGGAGACGAUCUUCUGGGUUACCUAA | 0.00141 ± 0.0039 |
| CUUAAGGAGACCAUCUACUGCGUUACCUUA | 0.000619 ± 0.0075 |
| CUUAAGGAGUGGAACUACUGGCUUACCUAA | 0.00115 ± 0.015 |
| CUUAAGGAGAGGUUCUAGUGGGUUACCUAA | 0.000726 ± 0.01 |
| CUUAAGGAGACCUACUACUGGGUUACUCUAA | 0.000227 ± 0.031 |
| CUUAAGGAGACCUAGAUCUGGGUUACCCAA | 0.000425 ± 0.016 |
| CUUAAGGAGACCUAGAUGACGUUUACCUAA | 0.000151 ± 0.035 |
| CUUAAGGAGACGUACUACUGGGUUACCUAA | 0.000914 ± 0.0065 |
| CUUAAGGAGACCAUCUACUGGGUUACCUGA | 0.00218 ± 0.0043 |
| CUUAAGGAGACCAUCUACUGUGGUUACCUAA | 0.00118 ± 0.0053 |
| CUUAAGGAGAGGAUCUACGGGGUUACCUAA | 0.00226 ± 0.006 |
| CUAUUCCUCUGCAUCUACUGGGUUACCUAA | 0.463 ± 0.04 |
| CUUAAGGAGACCAACUACUGCGUUACCUAA | 0.00209 ± 0.006 |
| CUUAAGGAGACCUACUACUGCGUUACCUUA | 0.000573 ± 0.013 |
| CUUAAGGAGUGGAACUACUGGGUUACCUUA | 0.00839 ± 0.0089 |

| Sequence | pre-steady-state target cleavage rate |
| --- | --- |
| CUUAAGGAGACCUACUACUGGGUUACUUAA | 0.00124 ± 0.0049 |
| GAUUUCCUCUGGAUCUACUGGGUUACCUAA | 0.183 ± 0.042 |
| CUAAUCCUCUGGUUCUACUGGGUUACCUAA | 0.755 ± 0.048 |
| CUUAAGGAGACCUAGAUCUGCGUUACGUAA | 0.000933 ± 0.0096 |
| CUUUUCCUCAGGAUCUACUGGGUUAGCUAA | 0.133 ± 0.041 |
| CUUAAGGAGACCAUCUACUGGGUGACCUAA | 0.000201 ± 0.019 |
| CUUAAGGAGUGGAUCUACUGCGUAACCUAA | 0.00324 ± 0.0064 |
| CUUAAGGAGACCUAGAUCUGGGUUACAUAA | 0.000977 ± 0.0053 |
| CUUAAGGAGACCUUCUACUGGGUUAGCUAA | 0.00152 ± 0.0047 |
| CUUAAGGAGACCAUCUACGGGGUUACCUAA | 0.00271 ± 0.0071 |
| CUUAAGGAGACCUACAUACUGGGUUACCUAA | 0.00105 ± 0.0049 |
| CUUAAGGAGACCAUCAUACUGGGUUACCUAA | 0.00118 ± 0.0046 |
| CUUAAGGAGACCAUCUACUGGAGUUACCUAA | 0.00168 ± 0.0058 |
| CUUAAGGAGACGAUCUACUCCGUUACCUAA | 0.00147 ± 0.0034 |
| CUUAAGGAGACCUAGUCCUGGGUUACCUAA | 0.00101 ± 0.0078 |
| CUUAAGGACAGGAUCUACUGGGUAACCUAA | 0.00951 ± 0.01 |
| CUUAAGGAGACCAUCUACUGGGUUACCGAA | 0.00151 ± 0.0046 |
| CUUAAGGAGAGCAUCUACUGGCUUACCUAA | 0.00122 ± 0.0054 |
| CUUAACCACUGGAUCUACUCGGUUACCUAA | 0.0483 ± 0.01 |
| CUUAAGGACUGGAUCUACUGCGUAACCUAA | 0.00722 ± 0.013 |
| CUUAAGGAGACCUAGUAUUGGGUUACCUAA | 0.000878 ± 0.0075 |
| CUUUUCCUCUCGAUGUACUGGGUUACCUAA | 0.592 ± 0.043 |
| GAAUUCCUCUGGAUCUAGUGGGUUUCCUAA | 0.108 ± 0.019 |
| CUUAAGGAGAGCAACUACUGGGUUACCUAA | 0.00243 ± 0.0036 |

| Sequence | pre-steady-state target cleavage rate |
| --- | --- |
| CUUAAGGAGACGAUCUUCUGGGUUUCCUAA | 0.00202 ± 0.0045 |
| CUUAAGGAGAGGAUCUACUGCGUAACCUAA | 0.000853 ± 0.013 |
| CUUAAGGAGACCUUCUACAGCGUUACCUAA | 0.00566 ± 0.0029 |
| CUUAAGGAGACGAUCUACUGGCUUUCCUAA | 0.00185 ± 0.0041 |
| CUUAAGGAGACGAUCUACUGGGUUAACUAA | 0.00106 ± 0.0086 |
| CUUAAGGAGACGAUCUCCUGGGUUACCUAA | 0.00112 ± 0.006 |
| CUUAAGGAGACCAUCUACUGGGGUACCUAA | 0.000969 ± 0.0097 |
| CUUAAGGACUGGACUCUACUGGGUUACCUAA | 0.0215 ± 0.023 |
| CUUAACCUCUGGAUCUGACUGGGUUACCUAA | 0.0005 ± 0.017 |
| CUUAAGGAGUGGAUCUACUGGGUAAGCUAA | 0.000177 ± 0.032 |
| CAAUUCCUCUGGAUUUACUGGGUUACCUAA | 0.681 ± 0.062 |
| CUUAUCCUCUGGAUCUACUGGGUAUGGAUA [g8:g26:cont:t1A] | 0.00136 ± 0.007 |
| CUUAAGGAGACGAUCUACUGAGGUUACCUAA | 0.00106 ± 0.0093 |
| CUUAAGGAGACCUAGAUCGGGUUACCUAA | 0.000808 ± 0.0061 |
| CUUAAGGAGACCUAGUACUGGGAAUCCUAA | 0.000465 ± 0.019 |
| CUUAAGGAGACGAUCUAUUGGGUUACCUAA | 0.00308 ± 0.0046 |
| GAAUUCCUCUCCAUCUACUGGGUUACCUAA | 0.706 ± 0.051 |
| CUUAAGGAGACGAUCUACUCGGUUAGCUAA | 0.000163 ± 0.06 |
| CUUAAGGAGAGGUCUACUGGGUUACCUAA | 0.00192 ± 0.004 |
| CUUAAGGAGACGAUCUAGCUGGGUUACCUAA | 0.00079 ± 0.0079 |
| CUUAAGGAGUGGAUCUAACUGGGUUACCUAA | 0.000114 ± 0.041 |
| CUUAAGGAGAGGAUCUACUGGGUAACGUAA | 0.00221 ± 0.0076 |
| CUUAAGGAGACCUAGUACUGGGUUACCCAA | 0.000857 ± 0.0089 |
| GAAUUCCUCCUGGAUCUACUGGGUUACCUAA | 0.445 ± 0.047 |
